Measurements reported in patent US7442836B2, “Phenethanolamine derivatives for treatment of respiratory diseases” (Glaxo Group Limited, priority 2001, dated 2008).
Some results were stated once for a whole list of compounds, not compound by compound. For some of these results: For at least one compound, name, drawing or mass did not settle the structure.

Chains of the proteins cited; added tags and fusions are not shown.
UniProt P07550, whole entry: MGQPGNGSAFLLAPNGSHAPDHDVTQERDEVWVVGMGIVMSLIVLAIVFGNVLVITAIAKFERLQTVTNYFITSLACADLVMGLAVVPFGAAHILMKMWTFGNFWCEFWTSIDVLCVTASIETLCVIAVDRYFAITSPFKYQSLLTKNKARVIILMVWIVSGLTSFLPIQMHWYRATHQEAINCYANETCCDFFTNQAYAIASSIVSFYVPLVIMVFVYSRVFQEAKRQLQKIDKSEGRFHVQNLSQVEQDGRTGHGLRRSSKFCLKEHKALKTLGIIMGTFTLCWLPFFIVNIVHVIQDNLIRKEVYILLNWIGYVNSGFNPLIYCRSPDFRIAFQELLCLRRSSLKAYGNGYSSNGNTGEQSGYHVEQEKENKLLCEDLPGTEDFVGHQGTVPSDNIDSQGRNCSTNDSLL

Each compound was assayed against PDE4 (assay: PDE4 IC50 ratio: [3H]R-rolipram high affinity binding versus low affinity PDE4 catalytic activity). Details: 1 nM [3H]R-rolipram binding over catalytic activity with 1 μM [3H]-cAMP.
Type: biochemical
In the case of `COC(=O)C1CC(C#N)(c2ccc(OC(F)F)c(OCC3CC3)c2)CCC1=O` (stereo not shown) [2-carbomethoxy-4-cyano-4-(3-cyclopropylmethoxy-4-difluoromethoxyphenyl)cyclohexan-1-one], the “IC50 ratio (IC50 for the PDE4 form which binds rolipram with high affinity divided by IC50 for the form which binds rolipram with low affinity)” value is reported as at least 0.1. With `COc1ccc([C@]2(C#N)CC[C@@H](C(=O)O)CC2)cc1OC1CCCC1` [cis 4-cyano-4-(3-cyclopentyloxy-4-methoxyphenyl)cyclohexan-1-carboxylic acid] the “IC50 ratio (IC50 for the PDE4 form which binds rolipram with high affinity divided by IC50 for the form which binds rolipram with low affinity)” value was at least 0.1. For `N#CC1(c2ccc(OC(F)F)c(OCC3CC3)c2)CCC(O)CC1` (stereo not drawn) [cis-[4-cyano-4-(3-cyclopropylmethoxy-4-difluoromethoxyphenyl)cyclohexan-1-ol]], the “IC50 ratio (IC50 for the PDE4 form which binds rolipram with high affinity divided by IC50 for the form which binds rolipram with low affinity)” value was at least 0.1.

Each compound was assayed against T1, human beta 2 adrenoreceptor (Homo sapiens, UniProt P07550) (assay: Beta 2 agonist potency in frog melanophores transfected with the human beta 2 adrenoreceptor (pigment dispersal, light transmittance)). Details: melatonin-induced pigment aggregation.
T1 construct: expressed in transfected cells; host or cells: frog melanophores
Type: cell-based
`CC(C)(C)NS(=O)(=O)c1cccc(CCCCOCCCCCCNC[C@H](O)c2ccc(O)c(CO)c2)c1` [Example 8, N-(tert-Butyl)-3-(4-{[6-({(2R)-2-hydroxy-2-[4-hydroxy-3-(hydroxymethyl)phenyl]ethyl}amino)hexyl]oxy}butyl)benzenesulfonamide acetate] showed an IC50 of under 1000 nM. `O=S(=O)(NCCN1CCOCC1)c1cccc(CCCCOCCCCCCNC[C@H](O)c2ccc(O)c(CO)c2)c1` [Example 29, 3-(4-{[6-({(2R)-2-Hydroxy-2-[4-hydroxy-3-(hydroxymethyl)phenyl]ethyl}amino)hexyl]oxy}butyl)-N-(2-morpholin-4-ylethyl)benzenesulfonamide acetate] gave an IC50 of under 1000 nM. Work on `NS(=O)(=O)c1ccc(NS(=O)(=O)c2cccc(CCCCOCCCCCCNC[C@H](O)c3ccc(O)c(CO)c3)c2)cc1` [Example 32, N-[4-(Aminosulfonyl)phenyl]-3-(4-{[6-({(2R)-2-hydroxy-2-[4-hydroxy-3-(hydroxymethyl)phenyl]ethyl}amino)hexyl]oxy}butyl)benzenesulfonamide acetate] yielded an IC50 of under 1000 nM. `CCNC(=O)NS(=O)(=O)c1cccc(CCCCOCCCCCCNC[C@H](O)c2ccc(O)c(CO)c2)c1` [Example 23, 4-{(1R)-2-[(6-{4-[3-({[(Ethylamino)carbonyl]amino}sulfonyl)phenyl]butoxy}hexyl)amino]-1-hydroxyethyl}-1-hydroxy-2-(hydroxymethyl)benzene acetate] gave an IC50 of under 1000 nM. Compound `CC(C)NS(=O)(=O)c1cccc(CCCCOCCCCCCNC[C@H](O)c2ccc(O)c(CO)c2)c1` [Example 7, 3-(4-{[6-({(2R)-2-Hydroxy-2-[4-hydroxy-3-(hydroxymethyl)phenyl]ethyl}-amino)hexyl]oxy}butyl)-N-isopropylbenzenesulfonamide acetate] has an IC50 of under 1000 nM. With `NS(=O)(=O)CCCCc1cccc(CCCCOCCCCCCNC[C@H](O)c2ccc(O)c(CO)c2)c1` [Example 14, 4-[3-(4-{[6-({(2R)-2-Hydroxy-2-[4-hydroxy-3-(hydroxymethyl)phenyl]ethyl}amino)hexyl]oxy}butyl)phenyl]butane-1-sulfonamide] the IC50 was under 1000 nM. For `NS(=O)(=O)CCc1cccc(CCCCOCCCCCCNC[C@H](O)c2ccc(O)c(CO)c2)c1` [Example 37, 2-[3-(4-{[6-({(2R)-2-Hydroxy-2-[4-hydroxy-3-(hydroxymethyl)phenyl]ethyl}amino)hexyl]oxy}butyl)phenyl]ethanesulfonamide], the IC50 was under 1000 nM.
